Source: patent publication US20200024362A1
Substitutions are numbered along the chain they refer to. Results are given in words; binding and its absence hold for the method and conditions named. Binding calls can cover weak binding; strength is not graded here. Each block holds one binder with its values, some of them ahead of it.

By UniProt entry, the sequences of proteins in these tests, tags left out. Where a name states a change or a piece, a line headed by the entry shows the natural chain unless it says otherwise.
UniProt P03951: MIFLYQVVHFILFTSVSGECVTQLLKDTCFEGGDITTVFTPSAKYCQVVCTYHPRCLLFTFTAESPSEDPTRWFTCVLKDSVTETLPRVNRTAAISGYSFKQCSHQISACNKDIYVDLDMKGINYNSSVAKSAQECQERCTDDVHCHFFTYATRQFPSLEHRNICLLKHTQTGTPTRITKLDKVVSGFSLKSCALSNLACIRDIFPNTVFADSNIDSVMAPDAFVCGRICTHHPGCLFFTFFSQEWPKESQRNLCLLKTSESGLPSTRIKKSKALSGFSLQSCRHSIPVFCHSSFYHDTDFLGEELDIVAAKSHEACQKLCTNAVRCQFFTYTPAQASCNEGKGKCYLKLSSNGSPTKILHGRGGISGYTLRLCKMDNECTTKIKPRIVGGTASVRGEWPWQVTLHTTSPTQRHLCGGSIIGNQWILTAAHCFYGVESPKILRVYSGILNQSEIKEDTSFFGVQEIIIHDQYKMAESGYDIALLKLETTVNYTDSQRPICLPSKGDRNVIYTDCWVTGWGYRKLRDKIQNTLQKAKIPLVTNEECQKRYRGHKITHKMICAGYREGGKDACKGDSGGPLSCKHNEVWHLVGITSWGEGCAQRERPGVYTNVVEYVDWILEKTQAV

Experiments:
human factor XIa (human) [1] = biological target: human factor XIa (human) (UniProt P03951); assay: SPR, antibody captured on sensor chip, FXIa flowed
human factor XIa (human) [2] = biological target: human factor XIa (human) (UniProt P03951); assay: SPR (Biacore T200), antibody captured on sensor chip, FXIa flowed
human factor XIa (human) [3] = biological target: human factor XIa (human) (UniProt P03951); assay: SPR (Biacore T200), antibody captured on anti-human IgG CM5 chip, FXIa flowed, 1:1 fit
human factor XIa (human) [4] = biological target: human factor XIa (human) (UniProt P03951); assay: SPR, antibody captured, FXIa flowed

binding (human factor XIa (human) [1]): binds
binding (human factor XIa (human) [2]): binds
binding (human factor XIa (human) [3]): binds
binding (human factor XIa (human) [4]): binds
B1: h-42A5 (antibody, V domains shown)
VH: QVTLKESGPVLVKPTETLTLTCTVSGFSLTSYHLHWIRQPPGKALEWMGLMWRDGDTSYNSRLKSRLTISRDTSKSQVVLTMTNMDPVDTATYYCARGMTLATPFLYWGQGTLVTVSS
VL: DVVLTQTPLSLSVTPGQPASISCRSSQSLESSDGNTYLEWYLQKPGQSPQLLIYGVSNRFSGVPDRFSGSGSGTDFTLKISRVEAEDLGVYYCFQATRDPFTFGQGTKLEIKR

binding (human factor XIa (human) [3]): binds
binding (human factor XIa (human) [4]): binds
B2: h-34F8 (antibody, V domains shown)
VH: QVQLQESGPGLVKPSETLSLTCTVSGFSLTTYHVHWVRQPPGKGLEWIGIMWRDGDTYYNSSLKSRVTISRDTSKNQVSLKLSSVTAADTAVYFCARGGTLTTPFTYWGQGTLVTVSS
VL: B1 VL with S12P, Q17E, S32R, L51V, I53L, F60L, L88V, R98H, D99G

binding (human factor XIa (human) [1]): binds
binding (human factor XIa (human) [2]): binds
binding (human factor XIa (human) [3]): binds
binding (human factor XIa (human) [4]): binds
B3: h-19F6 (antibody, V domains shown)
VH: EVQLVESGGGLVQPGRSLRLSCTASGFTFSKYAMSWVRQAPGKGLEWVSAINYDGSTTYYADSVKGRFTLSRDNSKNTLYLQMNSLRAEDTAVYYCARHPFNNFGIWFAYWGQGTLVTVS
VL: QFQLTQPSSVSASVGDRVTITCERSSGDIGDSYVSWYQQKPGQPPKNVIYADDQRPSGVPDRFSGSIDGSGNSASLTISSLQAEDAADYFCQSYDSNIDFNPVFGGGTKLEVK
